Laboratory results from PMC6486480.
Results are given in words; binding and its absence hold for the method and conditions named. In cells and extracts the contact can be indirect. Here binding means that the protein was enriched with, or labelled near, the bait; the list need not be complete. Values belong to the molecule of their own block, whether it stands above or below them.

Amino acid sequences for entries named in this document (tags omitted).
UniProt Q08642: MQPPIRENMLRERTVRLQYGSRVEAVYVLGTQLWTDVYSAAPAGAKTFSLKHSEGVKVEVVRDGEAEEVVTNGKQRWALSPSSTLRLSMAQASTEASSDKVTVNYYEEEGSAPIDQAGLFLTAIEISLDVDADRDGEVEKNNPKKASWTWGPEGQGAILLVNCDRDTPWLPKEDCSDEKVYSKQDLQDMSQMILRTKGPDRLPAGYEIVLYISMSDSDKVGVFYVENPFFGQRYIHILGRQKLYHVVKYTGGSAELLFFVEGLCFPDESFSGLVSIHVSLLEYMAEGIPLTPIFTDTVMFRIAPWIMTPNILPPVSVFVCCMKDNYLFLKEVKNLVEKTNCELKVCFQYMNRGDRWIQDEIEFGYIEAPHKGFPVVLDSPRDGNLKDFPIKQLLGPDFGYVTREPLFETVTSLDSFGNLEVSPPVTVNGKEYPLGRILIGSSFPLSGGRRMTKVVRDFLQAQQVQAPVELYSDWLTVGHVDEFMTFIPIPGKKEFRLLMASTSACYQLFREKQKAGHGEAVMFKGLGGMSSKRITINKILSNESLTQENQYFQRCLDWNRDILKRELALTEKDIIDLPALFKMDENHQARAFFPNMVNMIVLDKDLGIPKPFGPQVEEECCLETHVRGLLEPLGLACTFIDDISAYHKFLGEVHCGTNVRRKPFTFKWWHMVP
UniProt P19096: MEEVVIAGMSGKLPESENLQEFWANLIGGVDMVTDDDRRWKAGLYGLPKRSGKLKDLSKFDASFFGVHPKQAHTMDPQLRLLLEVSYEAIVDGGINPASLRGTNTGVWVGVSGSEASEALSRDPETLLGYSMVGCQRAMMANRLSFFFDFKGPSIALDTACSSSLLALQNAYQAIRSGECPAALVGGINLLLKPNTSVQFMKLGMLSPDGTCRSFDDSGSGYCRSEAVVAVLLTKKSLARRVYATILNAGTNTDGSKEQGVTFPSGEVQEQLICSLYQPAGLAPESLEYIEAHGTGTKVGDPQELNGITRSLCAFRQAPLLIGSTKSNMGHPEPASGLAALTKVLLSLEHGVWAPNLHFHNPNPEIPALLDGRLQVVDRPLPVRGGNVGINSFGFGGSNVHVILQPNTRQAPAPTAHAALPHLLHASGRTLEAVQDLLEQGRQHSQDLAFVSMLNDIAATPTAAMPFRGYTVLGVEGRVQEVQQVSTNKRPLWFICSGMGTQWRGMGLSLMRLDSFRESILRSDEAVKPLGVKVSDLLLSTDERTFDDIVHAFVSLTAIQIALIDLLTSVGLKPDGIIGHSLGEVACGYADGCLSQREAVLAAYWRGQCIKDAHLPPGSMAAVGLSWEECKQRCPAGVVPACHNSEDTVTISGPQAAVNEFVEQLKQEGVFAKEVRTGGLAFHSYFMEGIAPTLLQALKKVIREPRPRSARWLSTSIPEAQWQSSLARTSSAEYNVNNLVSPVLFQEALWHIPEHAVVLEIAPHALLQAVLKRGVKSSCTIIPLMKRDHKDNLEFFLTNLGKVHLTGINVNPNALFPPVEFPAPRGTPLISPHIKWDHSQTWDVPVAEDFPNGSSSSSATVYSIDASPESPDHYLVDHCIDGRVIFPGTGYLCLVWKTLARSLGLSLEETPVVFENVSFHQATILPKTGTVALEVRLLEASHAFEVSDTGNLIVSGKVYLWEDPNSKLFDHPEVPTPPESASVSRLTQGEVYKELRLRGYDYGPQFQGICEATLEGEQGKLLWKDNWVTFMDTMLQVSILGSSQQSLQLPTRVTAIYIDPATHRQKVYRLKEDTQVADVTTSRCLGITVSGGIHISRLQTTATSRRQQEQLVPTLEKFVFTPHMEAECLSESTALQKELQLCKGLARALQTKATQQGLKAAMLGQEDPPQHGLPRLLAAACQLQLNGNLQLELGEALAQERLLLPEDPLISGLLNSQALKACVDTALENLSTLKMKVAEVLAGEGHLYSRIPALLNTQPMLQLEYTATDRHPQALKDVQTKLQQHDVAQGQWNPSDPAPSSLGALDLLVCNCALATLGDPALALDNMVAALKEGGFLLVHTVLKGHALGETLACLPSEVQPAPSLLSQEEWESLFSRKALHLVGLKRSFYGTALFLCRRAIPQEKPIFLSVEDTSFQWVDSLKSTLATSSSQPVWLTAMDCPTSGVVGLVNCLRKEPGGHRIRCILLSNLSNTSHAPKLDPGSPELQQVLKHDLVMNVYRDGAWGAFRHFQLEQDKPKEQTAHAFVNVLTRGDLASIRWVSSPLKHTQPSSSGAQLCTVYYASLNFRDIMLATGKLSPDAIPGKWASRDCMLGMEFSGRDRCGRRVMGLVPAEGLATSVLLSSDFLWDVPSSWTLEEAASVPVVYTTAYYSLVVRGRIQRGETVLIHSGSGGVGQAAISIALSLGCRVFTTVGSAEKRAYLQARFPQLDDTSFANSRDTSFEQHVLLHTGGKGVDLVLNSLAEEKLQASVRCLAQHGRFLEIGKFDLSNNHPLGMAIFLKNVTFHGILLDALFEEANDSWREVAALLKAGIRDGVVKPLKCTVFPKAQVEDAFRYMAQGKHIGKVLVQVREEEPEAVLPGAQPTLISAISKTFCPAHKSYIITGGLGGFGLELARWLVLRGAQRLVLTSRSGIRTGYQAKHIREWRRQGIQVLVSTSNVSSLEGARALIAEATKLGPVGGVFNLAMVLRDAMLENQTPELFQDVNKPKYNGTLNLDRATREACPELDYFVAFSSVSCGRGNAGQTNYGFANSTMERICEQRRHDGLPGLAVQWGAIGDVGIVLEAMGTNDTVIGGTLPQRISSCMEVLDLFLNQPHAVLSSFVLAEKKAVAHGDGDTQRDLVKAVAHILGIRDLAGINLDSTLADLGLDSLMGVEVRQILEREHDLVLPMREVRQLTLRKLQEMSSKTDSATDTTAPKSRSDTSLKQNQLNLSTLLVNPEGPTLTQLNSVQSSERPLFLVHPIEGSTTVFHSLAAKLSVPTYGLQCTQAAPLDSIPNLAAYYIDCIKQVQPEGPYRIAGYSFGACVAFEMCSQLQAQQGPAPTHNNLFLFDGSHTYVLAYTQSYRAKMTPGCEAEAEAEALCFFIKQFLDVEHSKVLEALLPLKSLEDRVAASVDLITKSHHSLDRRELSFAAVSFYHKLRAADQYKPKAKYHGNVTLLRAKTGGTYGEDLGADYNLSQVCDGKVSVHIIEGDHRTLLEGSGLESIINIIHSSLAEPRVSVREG
UniProt P70168: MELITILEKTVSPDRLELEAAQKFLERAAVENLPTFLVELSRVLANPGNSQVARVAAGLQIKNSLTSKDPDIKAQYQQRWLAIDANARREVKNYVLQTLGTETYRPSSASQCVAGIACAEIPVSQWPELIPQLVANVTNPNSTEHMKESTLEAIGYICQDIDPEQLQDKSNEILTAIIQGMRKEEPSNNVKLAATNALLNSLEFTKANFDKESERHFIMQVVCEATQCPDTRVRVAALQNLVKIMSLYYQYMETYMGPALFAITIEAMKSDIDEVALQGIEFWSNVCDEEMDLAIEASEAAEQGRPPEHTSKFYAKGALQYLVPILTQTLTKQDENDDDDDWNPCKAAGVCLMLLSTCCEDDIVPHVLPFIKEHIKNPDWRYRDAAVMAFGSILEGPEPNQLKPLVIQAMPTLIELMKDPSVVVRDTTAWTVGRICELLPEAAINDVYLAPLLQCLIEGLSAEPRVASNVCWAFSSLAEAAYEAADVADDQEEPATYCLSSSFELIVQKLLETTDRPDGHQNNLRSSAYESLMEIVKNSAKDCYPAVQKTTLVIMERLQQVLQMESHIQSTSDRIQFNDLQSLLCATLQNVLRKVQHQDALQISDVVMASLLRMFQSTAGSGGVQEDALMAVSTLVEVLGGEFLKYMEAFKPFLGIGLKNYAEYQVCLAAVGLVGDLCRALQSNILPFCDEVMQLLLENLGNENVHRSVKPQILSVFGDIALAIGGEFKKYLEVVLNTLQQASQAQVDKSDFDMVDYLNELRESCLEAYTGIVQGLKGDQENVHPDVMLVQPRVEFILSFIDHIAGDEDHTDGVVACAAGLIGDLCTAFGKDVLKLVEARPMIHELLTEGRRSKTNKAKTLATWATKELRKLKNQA

Target: biotin-tagged PAD2 (peptidylarginine deiminase 2) (UniProt Q08642)
Assay: affinity purification with mass spectrometry; SILAC: BirA control cells (light) and bioPadi2 cells (heavy), proliferating and 2-days differentiated Oli-neu; cells fixed 8 min in 1% formaldehyde, lysed and sonicated; biotin-tagged PAD2 pulled down on streptavidin beads overnight at 4°C; beads of both conditions combined, on-bead trypsin digest, LC-MS/MS; interactors: log2(H/L) above 1 in both conditions

binding: binds
Molecule: FASN (from UniProt P19096 1-2504)

binding: binds
Molecule: KPNB1 (from UniProt P70168 1-876)

binding: binds
B1: elongator protein complex 1 (ELP1) (protein, UniProt Q7TT37 1-1333)
chain: MRNLKLHRTLEFRDIQAPGKPQCFCLRAEQGTVLIGSERGLTEVDPVRREVKTEISLVAEGFLPEDGSGCIVGIQDLLDQESVCVATASGDVIVCNLSTQQLECVGSVASGISVMSWSPDQELLLLATAQQTLIMMTKDFEVIAEEQIHQDDFGEGKFVTVGWGSKQTQFHGSEGRPTAFPVQLPENALPWDDRRPHITWRGDGQYFAVSVVCRQTEARKIRVWNREFALQSTSESVPGLGPALAWKPSGSLIASTQDKPNQQDVVFFEKNGLLHGHFTLPFLKDEVKVNDLLWNADSSVLAIWLEDLPKEDSSTLKSYVQLWTVGNYHWYLKQSLPFSTTGKNQIVSLLWDPVTPCRLHVLCTGWRYLCCDWHWTTDRSSGNSANDLANVAVIDGNRVLVTVFRQTVVPPPMCTYRLLIPHPVNQVIFSAHLGNDLAVLDASNQISVYKCGDKPNMDSTVKLGAVGGNGFKVPLTTPHLEKRYSIQFGNNEEEEEEEVNALQLSFLTWVEDDTFLAISYSHSSSQSIIHHLTVTHSEVDEEQGQLDVSSSVTVDGVVIGLCCCSKTKSLAVQLADGQVLKYLWESPSLAVEPWKNSEGIPVRFVHPCTQMEVATIGGEECVLGLTDRCRFFINDTEVASNITSFAVCDDFLLVTTHSHTCQVFSLSGASLKMLQAALSGSHEASGEILRKVERGSRIVTVVPQDTKLILQMPRGNLEVVHHRALVLAQIRKWLDKLMFKEAFECMRKLRINLNLIHDHNPKVFLENVETFVKQIDSVNHINLFFTELREEDVTKTMYPPPITKSVQVSTHPDGKKLDLICDAMRAAMEAINPRKFCLSILTSHVKKTTPELEIVLQKVQELQGNLPFDPESVSVEEALKYLLLLVDVNELFNHSLGTYDFNLVLMVAEKSQKDPKEYLPFLNTLKKMETNYQRFTIDKYLKRYEKALGHLSKCGPEYFTECLNLIKDKNLYKEALKLYRPDSPQYQAVSMAYGEHLMQEHLYEPAGLVFARCGAQEKALEAFLACGSWQQALCVAAQLQMSKDKVAGLARTLAGKLVEQRKHSEAATVLEQYAQDYEEAVLLLLEGSAWEEALRLVYKYDRVDIIETSVKPSILEAQKNYMDFLDSETATFIRHKNRLQVVRALRRQAPQVHVDHEVAHGPESDLFSETSSIMSGSEMSGRYSHSNSRISARSSKNRRKAERKKHSLKEGSPLEGLALLEALSEVVQSVEKLKDEVRAILKVLFLFEFEEQAKELQRAFESTLQLMERAVPEIWTPAGQQSSTTPVLGPSSTANSITASYQQQKTCVPALDAGVYMPPKMDPRSQWKLSLLE

binding: binds
B2: WDR1 (protein, UniProt O88342 1-606)
chain: MPYEIKKVFASLPQVERGVSKILGGDPKGDHFLYTNGKCVILRNIDNPAIADIYTEHAHQVVVAKYAPSGFYIASGDISGKLRIWDTTQKEHLLKYEYQPFAGKIKDIAWTEDSKRIAVVGEGREKFGAVFLWDTGSSVGEITGHNKVINSVDIKQTRPYRLATGSDDNCAAFFEGPPFKFKFTIGDHSRFVNCVRFSPDGNRFATASADGQIFIYDGKTGEKVCALGESKAHDGGIYAISWSPDSTHLLSASGDKTSKIWDVNVNSVVSTFPMGSNVLDQQLGCLWQKDHLLSISLSGYINYLDKNNPSKPLRVIKGHSKSIQCLTVHRNGGKSYIYSGSHDGHINYWDSETGENDSFSGKGHTNQVSRMTVNESEQLVSCSMDDTVRYTNLTLRDYSGQGVVKLDVQPKCVAVGPGGYTVVVCIGQIVLLKDQKKCFSIDNPGYEPEVVAVHPGGDTVAVGGTDGNVRVYSILASTLKDEGKLLEAKGPVTDVAYSHDGAFLAVCDASKVVTVFSVADGYSENNVFYGHHAKIVCLAWSPDNEHFASGGMDMMVYVWTLSDPETKVKIQDAHRLHHVSSLAWLDEHTLVTTSHDASVKEWTITY
